Measured values as given in patent US20250304587A1, “WEE1 INHIBITOR, PREPARATION THEREFOR AND USE THEREOF” (JIANGSU TASLY DIYI PHARMACEUTICAL CO., LTD., priority 2022, published 2025).

Assay: Membrane permeability in Caco-2 model
Format: in vitro ADME
Settings: human, Caco-2, pH 7.4
Method: Caco-2 cells were purchased from the American Model Tissue Cell Collection (Rockville, MD). The cell culture medium was modified Eagle's medium (MEM) containing 10% inactivated fetal bovine serum and 1% non-essential amino acids. […] The cells were incubated for 21-28 days after inoculation for transport experiments and the apparent permeability (Papp) of Lucifer Yellow was used to characterize and verify the compactness of the cell monolayer. […] After the incubation, dilute the samples on the apical side and basolateral side, and the concentrations of compounds on the apical and basolateral sides were detected by LC-MS/MS, and the concentrations of the compounds were quantified by standard curve.

Papp A→B at 90 min, 10 µM (Caco2, 10 μM, 90 min): 0.43 ×10⁻⁶ cm/s
Papp B→A at 90 min, 10 µM (Caco2, 10 μM, 90 min): 0.18 ×10⁻⁶ cm/s
efflux ratio at 90 min, 10 µM (Caco2, read-out: Efflux Ration): 0.42
Compound: CC(C)NCC(O)COc1ccc(CC(N)=O)cc1 (stereo not drawn) [Atenolol]
